Assay results reported in publication PMC6731260.
No constants are given. Whether binding was seen depends on the method and setting. Binding seen in cells or lysates may run through a third protein. Some entries that bind do so weakly or less than the wild type. Where a sequence is shown, tags or fusion partners need not be part of it.

Experiments:
[1] = biological target: T1, FLAG-ESRRB stably expressed in mESCs (pCDH-EF1-FLAG-ESRRB^WT-T2A-copGFP) (mouse) (UniProt Q61539); assay: co-IP; R1 mESCs stably expressing FLAG-ESRRB or FLAG-ESRRB^S25A; Sucrose-NP40 lysate with FLAG-magnetic beads, 4 °C, 2 h; endogenous OCT4 and NANOG detected by immunoblot
T1 sequence: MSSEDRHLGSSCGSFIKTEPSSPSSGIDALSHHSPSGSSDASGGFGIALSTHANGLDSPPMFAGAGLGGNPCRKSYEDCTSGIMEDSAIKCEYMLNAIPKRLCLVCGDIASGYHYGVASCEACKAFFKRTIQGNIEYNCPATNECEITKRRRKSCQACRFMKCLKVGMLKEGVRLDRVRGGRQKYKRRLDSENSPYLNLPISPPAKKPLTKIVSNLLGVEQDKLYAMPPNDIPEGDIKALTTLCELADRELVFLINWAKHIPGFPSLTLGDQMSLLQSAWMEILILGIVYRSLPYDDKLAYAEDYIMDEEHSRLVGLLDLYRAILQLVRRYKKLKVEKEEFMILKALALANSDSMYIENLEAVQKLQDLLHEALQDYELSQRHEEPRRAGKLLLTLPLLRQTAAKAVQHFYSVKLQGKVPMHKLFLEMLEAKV

[2] = biological target: T2, FLAG-ESRRB^S25A stably expressed in mESCs (pCDH-EF1-FLAG-ESRRB^S25A-T2A-copGFP) (mouse) (UniProt Q61539); assay: as above
T2 sequence: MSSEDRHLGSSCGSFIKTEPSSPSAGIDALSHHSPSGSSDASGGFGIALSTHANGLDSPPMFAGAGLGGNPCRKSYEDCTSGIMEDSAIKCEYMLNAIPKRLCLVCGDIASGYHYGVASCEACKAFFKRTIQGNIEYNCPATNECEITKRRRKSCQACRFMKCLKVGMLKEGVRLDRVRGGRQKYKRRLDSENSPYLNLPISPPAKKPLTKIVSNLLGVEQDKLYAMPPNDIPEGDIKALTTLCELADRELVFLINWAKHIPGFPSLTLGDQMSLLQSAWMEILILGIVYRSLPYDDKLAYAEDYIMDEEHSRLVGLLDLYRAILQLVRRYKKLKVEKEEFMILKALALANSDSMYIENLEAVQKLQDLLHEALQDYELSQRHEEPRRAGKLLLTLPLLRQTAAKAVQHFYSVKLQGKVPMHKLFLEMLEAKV

B1: NANOG, endogenous in mESCs (protein, UniProt Q80Z64 1-305)
chain: MSVGLPGPHSLPSSEEASNSGNASSMPAVFHPENYSCLQGSATEMLCTEAASPRPSSEDLPLQGSPDSSTSPKQKLSSPEADKGPEEEENKVLARKQKMRTVFSQAQLCALKDRFQKQKYLSLQQMQELSSILNLSYKQVKTWFQNQRMKCKRWQKNQWLKTSNGLIQKGSAPVEYPSIHCSYPQGYLVNASGSLSMWGSQTWTNPTWSSQTWTNPTWNNQTWTNPTWSSQAWTAQSWNGQPWNAAPLHNFGEDFLQPYVQLQQNFSASDLEVNLEATRESHAHFSTPQALELFLNYSVTPPGEI
binding [1]: binds | binding [2]: binds
